Test results published in article PMC10361659.
Results are given in words; binding and its absence hold for the method and conditions named. Binding seen in cells or lysates may run through a third protein. Some results given as binding are weak or reduced against the parent protein; the word gives no strength. One block for each molecule: values may come before it.

Amino acid sequences for entries named in this document (tags omitted). Residues count along the entry.
UniProt P02778, residues 22-98: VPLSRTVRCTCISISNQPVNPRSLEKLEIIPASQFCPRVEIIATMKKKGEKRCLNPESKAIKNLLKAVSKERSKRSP

What was measured:
[1] = molecular target: T1, glutathione peroxidase 3 (human (endogenous in the human SSC line)) (UniProt P22352); test: co-IP; endogenous proteins in human SSC line lysate (IP lysis buffer, Thermo Co-IP kit); IP antibody against GPx3 or CXCL10 at 4°C overnight; magnetic A/G beads 1 h at room temperature; Western blots with antibodies against GPx3 or CXCL10
T1 sequence: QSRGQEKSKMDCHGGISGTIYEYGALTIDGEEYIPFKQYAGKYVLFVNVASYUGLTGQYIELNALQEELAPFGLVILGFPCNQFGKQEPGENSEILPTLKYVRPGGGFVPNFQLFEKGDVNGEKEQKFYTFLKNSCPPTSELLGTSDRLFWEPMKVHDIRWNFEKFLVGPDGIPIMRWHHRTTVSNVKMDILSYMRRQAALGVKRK

[2] = molecular target: CXCL10 (human (endogenous in the human SSC line)) (UniProt P02778); test: as above

- binding [1]: binds
Molecule: CXCL10 (from UniProt P02778 22-98)

- binding [2]: binds
B1: glutathione peroxidase 3 (protein, UniProt P22352 21-226)
chain: T1 sequence
